# Measurements reported in PubChem BioAssay AID686943 (Drosophila RNAi Screening Center, 2013)
# Assay: 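Knockdowns that increase or decrease active ERK after insulin receptor stimulation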 (primary screen)
# Cells: Drosophila S2R+ haemocyte-like cells expressing YFP-tagged ERK (Rolled)
# Reagent: long dsRNA against Drosophila genes
# Conditions: insulin stimulation versus unstimulated cells; dose and duration not given
# Measurement: 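Antibody staining for doubly phosphorylated ERK divided by ERK-YFP signal, as plate z-scores, in insulin-treated and untreated cells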
# Scale: replicate 1, z-score of dpERK with insulin: higher = more active ERK per ERK-YFP after insulin
# In all, the deposit lists about 23,000 reagents; this is an unselected part of those that have a named target and a result. 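Extra replicates exist only for a retested subset of genes; insulin dose and duration not given; both raised and lowered dpERK matter.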 A plus sign joins genes that one reagent is predicted to hit. Further read-outs or replicates are left out here. Not stated in the record: the amount of reagent, the time to read-out.
The opening 9 records as a preview:
target gene,DRSC id,"replicate 1, z-score of dpERK with insulin"
CG7173,DRSC11812,-0.38
CG9416,DRSC07339,0.51
Fsn (F-box synaptic protein),DRSC06875,0.48
CG14086,DRSC10090,0.82
CG45002,DRSC20144,0.11
mei-W68 (meiotic W68),DRSC07649,0.8
hec (hector),DRSC19895,0.21
Aldh (Aldehyde dehydrogenase),DRSC02717,-0.42
CG4730,DRSC15633,-0.16

Results, from the start:
target gene,DRSC id,"replicate 1, z-score of dpERK with insulin"
CG7173,DRSC11812,-0.38
CG9416,DRSC07339,0.51
Fsn (F-box synaptic protein),DRSC06875,0.48
CG14086,DRSC10090,0.82
CG45002,DRSC20144,0.11
mei-W68 (meiotic W68),DRSC07649,0.8
hec (hector),DRSC19895,0.21
Aldh (Aldehyde dehydrogenase),DRSC02717,-0.42
CG4730,DRSC15633,-0.16
hubl (hug-bell),DRSC06825,0.89
Tssk (Testis-specific serine/threonine kinase),DRSC14784,0.5
PolG1 (DNA polymerase gamma subunit 1),DRSC03621,0.54
CG11906,DRSC06096,0.58
galene,DRSC08640,0.51
galene,DRSC08641,0.62
CG31717,DRSC01121,0.26
Fgop2 (Fibroblast growth factor receptor 1 oncogene partner 2),DRSC02016,-0.36
alpha-Man-Ib (alpha-Mannosidase class I b),DRSC14418,1.54
CG2972,DRSC18250,-0.63
tant (tantalus),DRSC11401,0.51
Calr (Calreticulin),DRSC16614,-0.22
Ppr-Y,DRSC20892,0.41
CG33124,DRSC00298,1.17
GstD11 (Glutathione S transferase D11),DRSC15251,-0.19
Aatf (Apoptosis antagonizing transcription factor),DRSC02131,-0.22
CG15824,DRSC00473,-0.43
CG43331,DRSC11671,0.68
CG7264,DRSC10793,0.04
CG9467,DRSC16498,-0.15
CR32745 (pseudo),DRSC17442,0.02
Rpn13 (Regulatory particle non-ATPase 13),DRSC06379,1.76
Sqor (Sulfide quinone oxidoreductase),DRSC08453,-0.21
Kdm2 (Lysine demethylase 2),DRSC14286,-0.72
CG42724,DRSC12567,0.37
CG42724,DRSC22275,2.14
CG7309,DRSC03045,-0.16
CG43777 + CG43776 + CG43775,DRSC04206,0.25
CG4983,DRSC02799,0.37
stj (straightjacket),DRSC06124,0.01
grn (grain),DRSC12666,-4.35
grn (grain),DRSC16961,1.69
superdeath (Suppressor of ER stress-induced death),DRSC14868,-0.12
chico,DRSC03531,2.28
CHOp24,DRSC18310,0.85
CG18735,DRSC04312,-0.33
mRpL44 (mitochondrial ribosomal protein L44),DRSC12306,1.45
Dysb (Dysbindin),DRSC10730,1.39
CG14500,DRSC06471,-0.25
CG42375 + CG9288,DRSC16468,0.89
CG13159,DRSC06283,-0.04
CG32533,DRSC19443,1.34
CG32533,DRSC19553,-0.07
dpr7 (defective proboscis extension response 7),DRSC17109,-1.18
Magi,DRSC04247,0.22
Magi,DRSC04451,0.86
Amt (Ammonium transporter),DRSC16055,0.24
Ggamma1 (G protein gamma subunit 1),DRSC07435,0.54
CG5916,DRSC15917,-0.5
Nos (Nitric oxide synthase),DRSC03381,0.52
CstF50 (Cleavage stimulation factor 50 kD subunit),DRSC15434,1.92
CG14451,DRSC11708,-1.56
CG5181,DRSC02825,0.6
EMC1 (ER membrane protein complex subunit 1),DRSC15455,0.42
pall (pallbearer),DRSC10364,-0.81
Desat2 (Desaturase 2),DRSC15919,0.77
Vps13B (Vacuolar protein sorting 13B),DRSC15060,0.98
CG12446,DRSC20618,0.31
Spn42Da (Serpin 42Da),DRSC05025,-0.03
CG42496 + Ppcdc,DRSC03886,3.19
Vps37B (Vacuolar protein sorting 37B),DRSC12165,-0.98
Taf7 (TBP-associated factor 7),DRSC15445,-0.43
GstD3 (Glutathione S transferase D3),DRSC15571,0.3
nuf (nuclear fallout),DRSC11379,0.7
nuf (nuclear fallout),DRSC22524,-2.43
